Laboratory results as given in patent US20060270596A1.
No constants are given. Whether binding was seen depends on the method and setting. For part of these data: In cells and extracts the contact can be indirect. Some entries that bind do so weakly or less than the wild type. For part of these data: Tags and fused reporters may be left off the sequences shown. Blank lines part the entries; values can stand above or below the binder they belong to.

The chains behind the UniProt entries cited, without tags or fusion partners. Where a name states a change or a piece, a line headed by the entry shows the natural chain unless it says otherwise. Residues count along the entry.
UniProt P02778: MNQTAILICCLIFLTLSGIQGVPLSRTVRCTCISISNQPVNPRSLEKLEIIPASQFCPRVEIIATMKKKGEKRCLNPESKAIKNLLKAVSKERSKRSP
UniProt O00585: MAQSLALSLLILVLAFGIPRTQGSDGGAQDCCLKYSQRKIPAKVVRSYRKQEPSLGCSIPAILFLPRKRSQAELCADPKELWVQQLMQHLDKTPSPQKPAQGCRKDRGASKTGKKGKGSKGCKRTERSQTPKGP
UniProt Q99731: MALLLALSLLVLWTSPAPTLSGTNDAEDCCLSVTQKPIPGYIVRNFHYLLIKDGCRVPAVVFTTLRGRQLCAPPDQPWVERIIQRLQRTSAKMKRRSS
UniProt Q99616: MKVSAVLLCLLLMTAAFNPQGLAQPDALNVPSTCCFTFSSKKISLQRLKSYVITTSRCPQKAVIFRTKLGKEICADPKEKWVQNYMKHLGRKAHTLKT
UniProt P78556, residues 27-96: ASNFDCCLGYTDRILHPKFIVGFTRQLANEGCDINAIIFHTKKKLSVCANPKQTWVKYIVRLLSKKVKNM
UniProt P48061, residues 1-89: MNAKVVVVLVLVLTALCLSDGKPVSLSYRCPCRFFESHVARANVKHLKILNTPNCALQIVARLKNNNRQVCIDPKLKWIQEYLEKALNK
UniProt P80075, residues 24-99: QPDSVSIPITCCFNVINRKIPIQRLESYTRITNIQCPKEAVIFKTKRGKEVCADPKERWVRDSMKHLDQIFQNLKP
UniProt P80098, residues 24-99: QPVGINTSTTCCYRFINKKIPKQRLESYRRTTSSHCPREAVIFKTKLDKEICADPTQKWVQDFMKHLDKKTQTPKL
UniProt Q9Y258, residues 24-94: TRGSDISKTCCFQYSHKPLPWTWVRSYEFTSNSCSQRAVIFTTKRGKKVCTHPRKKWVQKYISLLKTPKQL

How the values were obtained:
[1] = target: T1, GST-THAP1 fusion protein (THAP1 amino acids 1-213) (human); test: GST pull-down: in vitro translated 35S-labelled protein on GST-THAP1 immobilised on glutathione sepharose, SDS-PAGE, fluorography
T1 sequence: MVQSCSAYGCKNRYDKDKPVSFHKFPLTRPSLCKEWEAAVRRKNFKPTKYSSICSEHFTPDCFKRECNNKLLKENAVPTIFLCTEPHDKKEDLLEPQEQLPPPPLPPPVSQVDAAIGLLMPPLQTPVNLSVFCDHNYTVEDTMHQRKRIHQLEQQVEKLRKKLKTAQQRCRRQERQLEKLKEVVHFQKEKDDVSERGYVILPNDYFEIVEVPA

[2] = target: T2, human chemokine MIG/CXCL9, mature form (amino acids 23-125) (human) (UniProt Q07325); test: yeast two-hybrid, chemokine bait and THAP1 prey
T2 sequence: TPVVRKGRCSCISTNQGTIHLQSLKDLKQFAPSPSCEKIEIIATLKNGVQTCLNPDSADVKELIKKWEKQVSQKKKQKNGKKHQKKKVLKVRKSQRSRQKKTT

[3] = target: T3, partial human PAR4 from the two-hybrid library clones (positions 193-342) (human) (UniProt Q96IZ0); test: yeast two-hybrid screen of HEVEC cDNA library with THAP1 bait
T3 sequence: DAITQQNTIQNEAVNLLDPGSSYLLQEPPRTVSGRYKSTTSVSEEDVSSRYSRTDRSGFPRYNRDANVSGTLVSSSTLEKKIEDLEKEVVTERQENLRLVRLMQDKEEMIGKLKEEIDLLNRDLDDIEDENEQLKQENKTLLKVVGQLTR

[4] = target: human chemokine IP10/CXCL10, mature form (amino acids 22-98) (human) (UniProt P02778); test: yeast two-hybrid
[5] = target: T2, human chemokine MIG/CXCL9, mature form (amino acids 23-125) (human); test: yeast two-hybrid
[6] = target: T4, GST-Par4DD fusion protein (Par4 amino acids 250-342) (human) (UniProt Q96IZ0); test: GST pull-down, 35S-labelled in vitro translated THAP1 on immobilized GST-Par4DD
T4 sequence: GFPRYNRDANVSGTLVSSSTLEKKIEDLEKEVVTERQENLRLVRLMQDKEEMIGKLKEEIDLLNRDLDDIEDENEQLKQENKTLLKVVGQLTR

[7] = target: T4, GST-Par4DD fusion protein (Par4 amino acids 250-342) (human); test: GST pull-down: in vitro translated 35S-labelled protein on GST-Par4DD immobilised on glutathione sepharose, SDS-PAGE, fluorography
[8] = target: human chemokine SLC/CCL21, mature form (amino acids 24-134) (human) (UniProt O00585); test: GST pull-down, 35S-labelled in vitro translated SLC/CCL21
[9] = target: human chemokine IP10/CXCL10, mature form (amino acids 22-98) (human) (UniProt P02778); test: GST pull-down: in vitro translated 35S-labelled chemokine or cytokine on the GST fusion immobilised on glutathione sepharose, SDS-PAGE, fluorography
[10] = target: human chemokine ELC/CCL19, mature form (amino acids 22-98) (human) (UniProt Q99731); test: as above
[11] = target: T2, human chemokine MIG/CXCL9, mature form (amino acids 23-125) (human); test: as above
[12] = target: human chemokine IP10/CXCL10, mature form (amino acids 22-98) (human) (UniProt P02778); test: GST pull-down, 35S-labelled in vitro translated chemokine
[13] = target: human chemokine ELC/CCL19, mature form (amino acids 22-98) (human) (UniProt Q99731); test: as above
[14] = target: T2, human chemokine MIG/CXCL9, mature form (amino acids 23-125) (human); test: as above
[15] = target: human chemokine SLC/CCL21, mature form (amino acids 24-134) (human) (UniProt O00585); test: as above
[16] = target: human chemokine SLC/CCL21, mature form (amino acids 24-134) (human) (UniProt O00585); test: GST pull-down with GST-THAP1, 35S-labelled in vitro translated chemokine
[17] = target: human chemokine IP10/CXCL10, mature form (amino acids 22-98) (human) (UniProt P02778); test: GST pull-down (FIG. 20C)
[18] = target: human chemokine ELC/CCL19, mature form (amino acids 22-98) (human) (UniProt Q99731); test: GST pull-down (FIG. 20C)
[19] = target: T2, human chemokine MIG/CXCL9, mature form (amino acids 23-125) (human); test: GST pull-down (FIG. 20C)
[20] = target: T5, chemokine CCL1 (UniProt P22362); test: in vitro pull-down of 35S-labelled in vitro translated ligand (as Example 33); grade from percentage bound of total labelled ligand
T5 sequence (looked up): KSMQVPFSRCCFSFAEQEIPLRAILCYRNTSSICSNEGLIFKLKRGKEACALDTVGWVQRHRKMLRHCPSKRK

[21] = target: T6, chemokine CCL14 (UniProt Q16627); test: as above
T6 sequence (looked up): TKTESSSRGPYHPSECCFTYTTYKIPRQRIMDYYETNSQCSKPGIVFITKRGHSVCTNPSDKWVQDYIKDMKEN

[22] = target: chemokine CCL13 (UniProt Q99616); test: as above
[23] = target: T7, chemokine CCL18 (UniProt P55774); test: as above
T7 sequence (looked up): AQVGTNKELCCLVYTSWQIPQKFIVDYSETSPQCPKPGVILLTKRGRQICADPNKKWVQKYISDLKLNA

[24] = target: chemokine CCL20 (UniProt P78556); test: as above
[25] = target: T8, chemokine CXCL14 (UniProt O95715); test: as above
T8 sequence (looked up): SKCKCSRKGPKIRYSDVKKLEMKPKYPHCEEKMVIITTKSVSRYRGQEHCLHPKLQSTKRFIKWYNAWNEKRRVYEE

[26] = target: T9, chemokine CXCL13 (UniProt O43927); test: as above
T9 sequence (looked up): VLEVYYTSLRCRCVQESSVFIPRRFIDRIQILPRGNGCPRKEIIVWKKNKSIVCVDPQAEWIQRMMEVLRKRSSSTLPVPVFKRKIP

[27] = target: T10, chemokine CXCL2 (UniProt P19875); test: as above
T10 sequence (looked up): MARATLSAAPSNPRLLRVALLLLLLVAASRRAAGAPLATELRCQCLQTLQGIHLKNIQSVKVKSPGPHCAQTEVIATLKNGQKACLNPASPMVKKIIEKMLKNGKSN

[28] = target: T11, chemokine CXCL11 (UniProt O14625); test: as above
T11 sequence (looked up): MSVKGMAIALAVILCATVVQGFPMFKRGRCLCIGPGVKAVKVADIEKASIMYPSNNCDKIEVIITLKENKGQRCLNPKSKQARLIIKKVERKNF

[29] = target: chemokine CXCL12 (UniProt P48061); test: as above
[30] = target: human chemokine ELC/CCL19, mature form (amino acids 22-98) (human) (UniProt Q99731); test: as above
[31] = target: T2, human chemokine MIG/CXCL9, mature form (amino acids 23-125) (human); test: as above
[32] = target: human chemokine SLC/CCL21, mature form (amino acids 24-134) (human) (UniProt O00585); test: as above
[33] = target: chemokine CCL8 (UniProt P80075); test: as above
[34] = target: chemokine CCL7 (UniProt P80098); test: as above
[35] = target: chemokine CCL26 (UniProt Q9Y258); test: as above
[36] = target: T12, chemokine CXCL3 (UniProt P19876); test: as above
T12 sequence (looked up): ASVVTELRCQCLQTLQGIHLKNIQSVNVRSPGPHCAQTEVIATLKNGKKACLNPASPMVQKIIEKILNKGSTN

binding [1]: binds
binding [2]: binds
binding [3]: binds
binding [4]: binds
binding [5]: binds
binding [6]: binds
binding [7]: binds
B1: human THAP1 (THanatos-Associated-Protein-1), full length (protein)
chain: MVQSCSAYGCKNRYDKDKPVSFHKFPLTRPSLCKEWEAAVRRKNFKPTKYSSICSEHFTPDCFKRECNNKLLKENAVPTIFLCTEPHDKKEDLLEPQEQLPPPPLPPPVSQVDAAIGLLMPPLQTPVNLSVFCDHNYTVEDTMHQRKRIHQLEQQVEKLRKKLKTAQQRCRRQERQLEKLKEVVHFQKEKDDVSERGYVILPNDYFEIVEVPA

binding [8]: binds
binding [9]: binds
binding [10]: binds
binding [11]: binds
binding [12]: binds
binding [13]: binds
binding [14]: binds
binding [15]: binds
binding [16]: binds
binding [17]: binds
binding [18]: binds
binding [19]: binds
B2: GST-THAP1 fusion protein (THAP1 amino acids 1-213) (protein, not shown: a dimerising Fc or GST)
chain: MVQSCSAYGCKNRYDKDKPVSFHKFPLTRPSLCKEWEAAVRRKNFKPTKYSSICSEHFTPDCFKRECNNKLLKENAVPTIFLCTEPHDKKEDLLEPQEQLPPPPLPPPVSQVDAAIGLLMPPLQTPVNLSVFCDHNYTVEDTMHQRKRIHQLEQQVEKLRKKLKTAQQRCRRQERQLEKLKEVVHFQKEKDDVSERGYVILPNDYFEIVEVPA

binding [20]: binds
binding [21]: binds
binding [22]: binds
binding [23]: binds
binding [24]: binds
binding [25]: binds
binding [26]: binds
binding [27]: binds
binding [28]: binds
binding [29]: binds
binding [30]: binds
binding [31]: binds
binding [32]: binds
binding [33]: binds
binding [34]: binds
binding [35]: binds
binding [36]: binds
B3: THAP1 chemokine-binding domain/IgG1-Fc fusion constructed as described in Example 18B (THAP1 amino acids 140-213 fused to human IgG1-Fc) (Fc fusion, not shown: a dimerising Fc or GST)
chain: EDTMHQRKRIHQLEQQVEKLRKKLKTAQQRCRRQERQLEKLKEVVHFQKEKDDVSERGYVILPNDYFEIVEVPA
